The entries are a selection whose mix differs from that of the whole data set.
Molecular target: furin, P09958
Assay: furin cleavage Z-score vs untreated control; higher = more cleavage, active = 3.5 or more, inactive = 1 or less, 8 variable residues between constant flanks
Procedure: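 Multiplexed peptide-cDNA fusion cleavage assay. 8-mer variable peptides flanked by constant Cys-Ala (N-term) and Ala-Gly-Asn-Ala-Ser-Ala-Ser-Ala (C-term) and conjugated to a cDNA oligonucleotide were bead-immobilised via the N-terminus. They were treated with purified furin at a 1:10 enzyme:substrate ratio in 50 mM HEPES pH 7.5, 1 mM CaCl2, 100 mM NaCl for 7.5, 15 or 30 min. Released cDNA was counted by next-generation sequencing, and log counts versus no-furin controls were lowess-adjusted and converted to robust Z-scores.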

By UniProt entry, the sequences of proteins in these tests, tags left out.
furin, P09958, UniProt P09958, whole entry: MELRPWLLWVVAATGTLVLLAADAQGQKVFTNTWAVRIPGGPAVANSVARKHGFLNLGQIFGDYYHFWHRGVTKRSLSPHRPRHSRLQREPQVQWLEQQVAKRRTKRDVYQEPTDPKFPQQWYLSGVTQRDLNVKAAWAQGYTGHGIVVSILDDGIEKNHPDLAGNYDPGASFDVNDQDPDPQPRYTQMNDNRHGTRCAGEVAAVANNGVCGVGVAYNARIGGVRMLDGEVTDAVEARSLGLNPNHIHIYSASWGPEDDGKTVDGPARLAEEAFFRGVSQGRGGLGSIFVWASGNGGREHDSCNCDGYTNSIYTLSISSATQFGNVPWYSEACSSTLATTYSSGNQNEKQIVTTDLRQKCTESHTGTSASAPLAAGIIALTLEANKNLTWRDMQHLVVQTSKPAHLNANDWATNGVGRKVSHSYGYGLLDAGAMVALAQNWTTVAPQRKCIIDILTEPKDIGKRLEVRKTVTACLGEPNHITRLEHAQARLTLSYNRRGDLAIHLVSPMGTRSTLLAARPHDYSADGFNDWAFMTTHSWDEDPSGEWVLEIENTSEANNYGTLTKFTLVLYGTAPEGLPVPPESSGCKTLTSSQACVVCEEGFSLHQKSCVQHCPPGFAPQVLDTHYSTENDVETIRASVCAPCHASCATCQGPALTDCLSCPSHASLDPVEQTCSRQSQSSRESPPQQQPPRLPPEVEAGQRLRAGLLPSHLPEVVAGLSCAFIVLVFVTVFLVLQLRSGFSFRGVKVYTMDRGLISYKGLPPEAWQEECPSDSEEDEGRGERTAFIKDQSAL

Sequence	furin cleavage Z-score (7.5 min)	furin cleavage Z-score (15 min)	furin cleavage Z-score (30 min)
CAEVPCHRDSAGNASASA [HC2391]	inactive: 0.533	1.52	1.63
CADIIRQKRLAGNASASA [FS-755]	1.14	1.93	2.68
CAGPGRAQRSAGNASASA [FS-1200]	1.54	1.32	2.77
CATTPCSGAWAGNASASA [HC1903]	1.82	1.1	1.14
CARKRRSTNEAGNASASA [FS-2039]	active: 13.4	active: 14	active: 10.3
CALLHRAKKGAGNASASA [FS-1641]	1.22	1.04	1.32
CAGSSRPYRCAGNASASA [FS-168]	2.08	3.41	3.16
CASRARGPRRAGNASASA [FS-962]	3.16	2.96	3.43
CARPAREVGDAGNASASA [FS-3199]	2.69	2.98	2.5
CARALRSLDLAGNASASA [FS-2325]	active: 3.52	–	active: 4.65
CASRYRAQRFAGNASASA [FS-565]	1.07	1.35	3.3
CARMKRAGRVAGNASASA [FS-1751]	active: 5.19	active: 5.19	active: 5.87
CALGRRTKRAAGNASASA [FS-50]	active: 9.24	active: 10.5	active: 6.44
CATRVEAQLHAGNASASA [HC586]	1.44	2.61	1.36
CAVLRRAKRRAGNASASA [FS-734]	2.6	2.53	1.84
CARPARVARVAGNASASA [FS-860]	2.3	2.11	2.27
CAGLMALTLSAGNASASA [HC573]	1.05	1.63	1.98
CAEVPCHRNSAGNASASA [HC2401]	1.53	1.42	1.12

Full records, quoted from the list. Values in the order: furin cleavage Z-score (7.5 min) | furin cleavage Z-score (15 min) | furin cleavage Z-score (30 min)
CAGLMALTLSAGNASASA [HC573] is listed with 1.05 | 1.63 | 1.98
CARPARVARVAGNASASA [FS-860] is listed with 2.3 | 2.11 | 2.27

Remaining list, next part

Sequence	furin cleavage Z-score (7.5 min)	furin cleavage Z-score (15 min)	furin cleavage Z-score (30 min)
CAREVRSVAPAGNASASA [FS-2919]	1.88	1.63	2.22
CALPRRGPRLAGNASASA [HC179]	1.91	1.55	2.36
CAYCWHYPPKAGNASASA [HC403]	1.04	inactive: 0.468	2.44
CARQKRRTGAAGNASASA [FS-2757]	1.21	3.29	2.88
CARPRRPRRPAGNASASA [FS-2745]	2.24	1.74	1.75
CARKRRMQEEAGNASASA [FS-2349]	1.31	active: 4.08	2.78
CARKNRQIQDAGNASASA [FS-2425]	1.86	2.84	1.09
CALSKRDTGAAGNASASA [FS-2125]	3.27	2.39	1.16
CAMEGCSQHLAGNASASA [HC1716]	1.23	inactive: 0.47	inactive: 0.552
CAPCSGSWLRAGNASASA [HC1146]	2.4	2.67	2.29
CAGEECSQHLAGNASASA [HC1676]	inactive: 0.0385	1.42	inactive: -0.903
CAKANLLSVEAGNASASA [HC1410]	inactive: -0.514	inactive: -0.264	inactive: -1.3
CARLRRSLPPAGNASASA [FS-2280]	active: 7.15	active: 6.52	active: 7.39
CAQSARKMRLAGNASASA [FS-483]	1.38	1.46	1.3
CAMEELSQHLAGNASASA [HC4]	1.85	1.23	1.84
CARDKRSALQAGNASASA [FS-1945]	active: 8.56	active: 10.4	active: 8.42
CAVRKRNVESAGNASASA [FS-2475]	1.31	1.67	1.25
CAHTPCSAHLAGNASASA [HC2475]	inactive: -0.788	inactive: -1.31	inactive: -0.643
